According to the supplement of paper PMC10849652:
This is one part of the list.

Amino acid sequences for entries named in this document (tags omitted). A change or cut given only in a name is not applied to a line headed by its entry.
UniProt P20042, whole entry, looked up: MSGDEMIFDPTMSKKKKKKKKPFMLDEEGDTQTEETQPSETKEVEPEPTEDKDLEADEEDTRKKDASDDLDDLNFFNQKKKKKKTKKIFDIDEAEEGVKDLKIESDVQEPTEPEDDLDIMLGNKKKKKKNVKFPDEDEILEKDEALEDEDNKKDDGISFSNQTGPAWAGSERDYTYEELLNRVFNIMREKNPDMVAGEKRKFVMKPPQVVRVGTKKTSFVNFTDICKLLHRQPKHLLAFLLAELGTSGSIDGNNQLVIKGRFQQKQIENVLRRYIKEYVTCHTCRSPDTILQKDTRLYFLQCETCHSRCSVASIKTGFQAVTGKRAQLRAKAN
UniProt O43414: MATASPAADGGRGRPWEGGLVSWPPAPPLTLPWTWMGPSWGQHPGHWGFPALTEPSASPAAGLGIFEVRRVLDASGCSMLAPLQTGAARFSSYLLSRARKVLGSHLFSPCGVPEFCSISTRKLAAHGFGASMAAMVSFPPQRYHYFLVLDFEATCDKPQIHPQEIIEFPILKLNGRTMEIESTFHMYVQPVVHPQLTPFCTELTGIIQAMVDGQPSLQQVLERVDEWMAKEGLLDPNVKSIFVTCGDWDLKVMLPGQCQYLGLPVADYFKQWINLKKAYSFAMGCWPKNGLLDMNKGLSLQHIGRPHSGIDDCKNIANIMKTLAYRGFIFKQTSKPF
UniProt Q14240, whole entry, looked up: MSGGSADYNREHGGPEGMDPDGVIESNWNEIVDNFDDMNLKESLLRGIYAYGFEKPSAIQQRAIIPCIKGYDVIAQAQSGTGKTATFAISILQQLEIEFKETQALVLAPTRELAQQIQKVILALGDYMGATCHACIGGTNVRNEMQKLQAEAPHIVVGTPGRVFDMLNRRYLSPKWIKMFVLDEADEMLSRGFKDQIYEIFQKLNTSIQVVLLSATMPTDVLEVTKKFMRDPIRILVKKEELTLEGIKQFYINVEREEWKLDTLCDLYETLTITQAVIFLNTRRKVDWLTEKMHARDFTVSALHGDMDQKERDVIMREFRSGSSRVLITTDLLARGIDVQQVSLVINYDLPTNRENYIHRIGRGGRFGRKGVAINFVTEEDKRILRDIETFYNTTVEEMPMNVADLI
UniProt Q7L5Y1: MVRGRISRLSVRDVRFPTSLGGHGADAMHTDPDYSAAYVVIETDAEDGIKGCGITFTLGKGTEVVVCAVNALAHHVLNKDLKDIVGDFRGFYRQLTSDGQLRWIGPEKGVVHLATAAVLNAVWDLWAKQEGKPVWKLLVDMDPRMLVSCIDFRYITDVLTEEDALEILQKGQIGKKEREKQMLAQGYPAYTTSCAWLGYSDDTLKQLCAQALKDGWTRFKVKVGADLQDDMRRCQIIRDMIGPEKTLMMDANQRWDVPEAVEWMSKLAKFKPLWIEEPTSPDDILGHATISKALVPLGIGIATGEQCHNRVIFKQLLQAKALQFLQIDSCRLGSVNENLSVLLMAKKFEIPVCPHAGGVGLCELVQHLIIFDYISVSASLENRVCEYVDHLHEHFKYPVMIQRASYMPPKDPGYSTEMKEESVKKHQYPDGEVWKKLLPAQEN
UniProt P07992: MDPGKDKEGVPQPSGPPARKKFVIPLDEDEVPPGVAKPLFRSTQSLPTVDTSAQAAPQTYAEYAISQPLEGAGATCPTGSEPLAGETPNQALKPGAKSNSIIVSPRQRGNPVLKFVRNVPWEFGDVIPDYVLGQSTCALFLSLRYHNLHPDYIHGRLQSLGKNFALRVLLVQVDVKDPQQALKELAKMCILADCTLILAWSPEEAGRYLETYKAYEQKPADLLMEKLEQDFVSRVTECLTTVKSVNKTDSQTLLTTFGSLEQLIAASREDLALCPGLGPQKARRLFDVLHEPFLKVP
UniProt Q9HC35: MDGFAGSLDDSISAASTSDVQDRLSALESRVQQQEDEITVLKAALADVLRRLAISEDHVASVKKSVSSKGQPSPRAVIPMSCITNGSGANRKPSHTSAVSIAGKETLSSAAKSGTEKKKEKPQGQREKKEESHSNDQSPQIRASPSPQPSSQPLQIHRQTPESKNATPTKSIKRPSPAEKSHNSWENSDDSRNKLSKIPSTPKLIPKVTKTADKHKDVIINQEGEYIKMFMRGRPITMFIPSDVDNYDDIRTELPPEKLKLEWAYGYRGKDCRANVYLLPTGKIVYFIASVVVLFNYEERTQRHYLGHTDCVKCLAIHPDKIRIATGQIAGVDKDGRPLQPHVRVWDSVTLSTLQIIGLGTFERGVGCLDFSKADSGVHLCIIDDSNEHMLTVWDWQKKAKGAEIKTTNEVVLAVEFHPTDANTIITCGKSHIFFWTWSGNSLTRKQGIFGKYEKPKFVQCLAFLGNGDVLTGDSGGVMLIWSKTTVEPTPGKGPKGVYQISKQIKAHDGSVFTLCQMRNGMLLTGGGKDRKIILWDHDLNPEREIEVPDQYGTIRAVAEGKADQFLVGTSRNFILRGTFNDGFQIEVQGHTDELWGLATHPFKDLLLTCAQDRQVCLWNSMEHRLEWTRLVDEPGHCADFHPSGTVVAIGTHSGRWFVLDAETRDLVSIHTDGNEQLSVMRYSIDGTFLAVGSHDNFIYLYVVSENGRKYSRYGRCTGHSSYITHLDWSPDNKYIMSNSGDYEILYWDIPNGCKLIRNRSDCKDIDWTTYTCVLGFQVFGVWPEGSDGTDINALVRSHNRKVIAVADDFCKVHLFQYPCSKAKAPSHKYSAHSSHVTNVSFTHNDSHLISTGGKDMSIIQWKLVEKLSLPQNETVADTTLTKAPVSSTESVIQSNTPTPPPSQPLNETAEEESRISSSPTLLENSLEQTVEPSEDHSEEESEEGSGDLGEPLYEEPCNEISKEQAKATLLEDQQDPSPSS
UniProt Q53HC9: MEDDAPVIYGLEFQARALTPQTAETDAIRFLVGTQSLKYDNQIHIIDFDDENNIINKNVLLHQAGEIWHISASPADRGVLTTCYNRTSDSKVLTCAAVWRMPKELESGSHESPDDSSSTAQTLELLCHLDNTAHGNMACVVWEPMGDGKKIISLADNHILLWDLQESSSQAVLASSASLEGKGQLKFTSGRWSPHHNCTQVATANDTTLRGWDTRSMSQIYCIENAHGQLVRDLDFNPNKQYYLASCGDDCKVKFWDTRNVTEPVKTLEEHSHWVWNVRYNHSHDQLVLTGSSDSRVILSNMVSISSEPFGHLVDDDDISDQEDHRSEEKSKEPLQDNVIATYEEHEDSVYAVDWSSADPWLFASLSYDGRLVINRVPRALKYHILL
UniProt O95163: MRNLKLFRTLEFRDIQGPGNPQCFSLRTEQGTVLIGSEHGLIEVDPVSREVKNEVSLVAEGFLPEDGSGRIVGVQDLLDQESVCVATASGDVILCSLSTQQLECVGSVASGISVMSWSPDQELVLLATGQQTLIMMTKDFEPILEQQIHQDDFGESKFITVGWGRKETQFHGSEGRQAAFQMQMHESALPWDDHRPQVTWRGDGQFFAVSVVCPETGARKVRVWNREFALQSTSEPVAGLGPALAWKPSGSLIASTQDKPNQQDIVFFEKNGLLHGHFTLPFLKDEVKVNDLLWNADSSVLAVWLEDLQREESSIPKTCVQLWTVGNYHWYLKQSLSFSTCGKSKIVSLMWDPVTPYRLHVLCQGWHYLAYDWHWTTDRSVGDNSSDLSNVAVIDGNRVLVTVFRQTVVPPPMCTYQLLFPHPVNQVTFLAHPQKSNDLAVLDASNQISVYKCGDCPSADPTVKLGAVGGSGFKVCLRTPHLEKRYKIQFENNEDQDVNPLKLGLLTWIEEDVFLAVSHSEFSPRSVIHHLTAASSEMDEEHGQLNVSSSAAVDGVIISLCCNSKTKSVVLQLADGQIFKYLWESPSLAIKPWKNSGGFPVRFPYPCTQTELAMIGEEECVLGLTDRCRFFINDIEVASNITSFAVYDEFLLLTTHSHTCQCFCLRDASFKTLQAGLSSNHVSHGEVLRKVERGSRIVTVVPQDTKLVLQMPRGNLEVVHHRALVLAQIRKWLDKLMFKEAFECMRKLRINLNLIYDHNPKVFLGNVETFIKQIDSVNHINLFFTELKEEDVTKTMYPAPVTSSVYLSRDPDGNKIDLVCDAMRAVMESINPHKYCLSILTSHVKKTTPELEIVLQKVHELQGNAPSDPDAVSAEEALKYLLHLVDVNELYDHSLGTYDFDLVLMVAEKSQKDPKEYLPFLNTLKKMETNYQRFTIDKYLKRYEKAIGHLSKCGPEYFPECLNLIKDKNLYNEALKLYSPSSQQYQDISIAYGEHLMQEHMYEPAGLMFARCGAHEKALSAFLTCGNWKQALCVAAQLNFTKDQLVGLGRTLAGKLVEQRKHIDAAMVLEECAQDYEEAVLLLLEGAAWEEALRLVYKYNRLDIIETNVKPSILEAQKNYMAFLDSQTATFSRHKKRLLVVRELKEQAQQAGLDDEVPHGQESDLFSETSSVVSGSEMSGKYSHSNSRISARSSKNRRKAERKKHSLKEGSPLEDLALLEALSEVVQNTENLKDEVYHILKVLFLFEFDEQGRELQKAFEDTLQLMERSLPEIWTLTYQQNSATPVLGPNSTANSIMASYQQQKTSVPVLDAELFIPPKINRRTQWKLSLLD
UniProt P42566: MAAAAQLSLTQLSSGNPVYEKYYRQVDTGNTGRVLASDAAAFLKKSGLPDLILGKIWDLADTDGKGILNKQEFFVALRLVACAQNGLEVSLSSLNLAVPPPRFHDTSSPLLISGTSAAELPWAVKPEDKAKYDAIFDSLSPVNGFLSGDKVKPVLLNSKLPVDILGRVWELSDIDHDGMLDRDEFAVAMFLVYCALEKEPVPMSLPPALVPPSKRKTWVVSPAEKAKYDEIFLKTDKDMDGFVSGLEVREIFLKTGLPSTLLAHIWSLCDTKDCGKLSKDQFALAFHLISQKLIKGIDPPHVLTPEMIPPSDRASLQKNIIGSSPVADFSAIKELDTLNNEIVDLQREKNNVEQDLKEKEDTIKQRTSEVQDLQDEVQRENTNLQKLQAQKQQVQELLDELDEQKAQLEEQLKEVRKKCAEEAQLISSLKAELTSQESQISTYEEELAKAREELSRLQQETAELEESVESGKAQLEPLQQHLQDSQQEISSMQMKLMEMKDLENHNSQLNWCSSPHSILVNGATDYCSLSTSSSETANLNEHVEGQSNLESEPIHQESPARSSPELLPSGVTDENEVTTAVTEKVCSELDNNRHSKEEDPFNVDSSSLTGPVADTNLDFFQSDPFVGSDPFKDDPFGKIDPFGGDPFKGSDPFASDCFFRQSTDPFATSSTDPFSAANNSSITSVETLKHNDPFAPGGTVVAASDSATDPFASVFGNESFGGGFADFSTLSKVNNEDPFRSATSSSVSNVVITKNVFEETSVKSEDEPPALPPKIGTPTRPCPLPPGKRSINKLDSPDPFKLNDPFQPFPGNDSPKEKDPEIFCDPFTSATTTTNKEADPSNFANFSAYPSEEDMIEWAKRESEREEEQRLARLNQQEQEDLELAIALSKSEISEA
UniProt P84090, whole entry, looked up: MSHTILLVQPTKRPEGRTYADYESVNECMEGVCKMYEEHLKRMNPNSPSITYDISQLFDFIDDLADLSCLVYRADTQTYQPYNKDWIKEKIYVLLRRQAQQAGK
UniProt P32519: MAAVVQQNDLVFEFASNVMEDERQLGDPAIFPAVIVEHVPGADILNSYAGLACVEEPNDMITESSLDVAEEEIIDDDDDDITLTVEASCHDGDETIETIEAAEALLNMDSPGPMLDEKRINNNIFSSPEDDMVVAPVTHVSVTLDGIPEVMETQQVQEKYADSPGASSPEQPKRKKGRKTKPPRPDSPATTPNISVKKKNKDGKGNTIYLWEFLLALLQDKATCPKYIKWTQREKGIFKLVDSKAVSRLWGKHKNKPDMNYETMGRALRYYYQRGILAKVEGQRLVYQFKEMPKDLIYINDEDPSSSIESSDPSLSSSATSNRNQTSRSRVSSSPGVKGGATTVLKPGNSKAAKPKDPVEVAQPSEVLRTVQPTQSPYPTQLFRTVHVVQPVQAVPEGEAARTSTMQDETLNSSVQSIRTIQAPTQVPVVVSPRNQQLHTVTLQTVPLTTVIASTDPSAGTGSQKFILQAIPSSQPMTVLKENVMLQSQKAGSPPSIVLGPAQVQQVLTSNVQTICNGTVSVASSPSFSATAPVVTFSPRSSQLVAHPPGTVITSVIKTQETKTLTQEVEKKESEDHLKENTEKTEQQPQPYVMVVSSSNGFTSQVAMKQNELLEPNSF
UniProt Q13347, whole entry, looked up: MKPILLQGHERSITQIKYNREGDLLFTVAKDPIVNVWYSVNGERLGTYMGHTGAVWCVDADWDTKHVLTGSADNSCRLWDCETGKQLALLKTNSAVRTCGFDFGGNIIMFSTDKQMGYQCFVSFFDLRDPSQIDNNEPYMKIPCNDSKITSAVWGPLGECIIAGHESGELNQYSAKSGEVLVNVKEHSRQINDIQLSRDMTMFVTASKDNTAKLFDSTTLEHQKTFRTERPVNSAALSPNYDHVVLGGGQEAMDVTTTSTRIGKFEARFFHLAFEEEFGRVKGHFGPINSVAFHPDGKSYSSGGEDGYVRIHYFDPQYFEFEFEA

What was measured:
Assay in all cases: log2 fold change, soluble protein after heating vs DMSO (PISA); higher = thermal stabilisation; K562 lysate, 10 uM; active = over 0.2 and 3.5 SD of the protein, either way, in both replicates (recomputed)
vemurafenib = compound: CCCS(=O)(=O)Nc1ccc(F)c(C(=O)c2c[nH]c3ncc(-c4ccc(Cl)cc4)cc23)c1F [vemurafenib]
Method in brief: (§1)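 Dounce homogenisation of K562 pellets in PBS pH 7.4 with 1 mM MgCl2 produced a crude extract, used at 1 mg/mL protein. Exposure to 10 μM compound lasted 30 min, and aliquots were then heated for 3 min across 48°C-58°C, pooled and brought to 0.5% NP-40 at 4°C. The supernatant after 21,000xg for 90 min was quantified by TMTpro 16plex LC-MS/MS with channel sums equalised. Duplicate values are given as log-two fold change in thermal stability relative to solvent controls.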

[1] = compound: CCCS(=O)(=O)Nc1ccc(F)c(C(=O)c2c[nH]c3ncc(Cl)cc23)c1F
Method in brief: as §1

barasertib = compound: CCN(CCCOc1ccc2c(Nc3cc(CC(=O)Nc4cccc(F)c4)[nH]n3)ncnc2c1)CCOP(=O)(O)O [barasertib]
Method in brief: as §1

[2] = compound: CC[C@@H]1C(=O)N(C)c2cnc(Nc3ccc(C(=O)NC4CCN(C)CC4)cc3OC)nc2N1C1CCCC1
Method in brief: as §1

volasertib = compound: CC[C@@H]1C(=O)N(C)c2cnc(Nc3ccc(C(=O)N[C@H]4CC[C@H](N5CCN(CC6CC6)CC5)CC4)cc3OC)nc2N1C(C)C [volasertib]
Method in brief: as §1

[3] = compound: CCn1c(C(=O)N(C2CC2)C2CC2)cc2c3c(ncn3C)c(Nc3cc(C)n(C)n3)nc21
Method in brief: as §1

[4] = compound: CCn1cc(-c2ccnc3[nH]c(-c4cccc(CN(C)C)c4)cc23)c(-c2ccc(NC(=O)N(C)C)cc2)n1
Method in brief: as §1

[5] = compound: CN1CCC(CNc2ccc3ncc(-c4cccc(OC(F)(F)F)c4)n3n2)CC1
Method in brief: as §1

saracatinib = compound: CN1CCN(CCOc2cc(OC3CCOCC3)c3c(Nc4c(Cl)ccc5c4OCO5)ncnc3c2)CC1 [saracatinib]
Method in brief: as §1

sotrastaurin = compound: CN1CCN(c2nc(C3=C(c4c[nH]c5ccccc45)C(=O)NC3=O)c3ccccc3n2)CC1 [sotrastaurin]
Method in brief: as §1

alvocidib = compound: CN1CC[C@H](c2c(O)cc(O)c3c(=O)cc(-c4ccccc4Cl)oc23)[C@H](O)C1 [alvocidib]
Method in brief: as §1

Tubastatin A = compound: CN1CCc2c(c3ccccc3n2Cc2ccc(C(=O)NO)cc2)C1 [Tubastatin A]
Method in brief: as §1

[6] = compound: CNC(=O)C1=CC=CC=C1NC2=NC(=NC=C2Cl)NC3=C(C=C(C=C3)N4CCOCC4)OC
Method in brief: as §1

defactinib = compound: CNC(=O)c1ccc(Nc2ncc(C(F)(F)F)c(NCc3nccnc3N(C)S(C)(=O)=O)n2)cc1 [defactinib]
Method in brief: as §1

[7] = compound: CNc1nc(-c2ccc3c(N)n[nH]c3c2)cc(N2C[C@@H](C(=O)NC3CCCCC3)CC[C@H]2C)n1
Method in brief: as §1

encorafenib = compound: COC(=O)N[C@@H](C)CNc1nccc(-c2cn(C(C)C)nc2-c2cc(Cl)cc(NS(C)(=O)=O)c2F)n1 [encorafenib]
Method in brief: as §1

[8] = compound: COC(=O)[C@H](CCSC)NC(=O)C1=C(C=C(C=C1)NC[C@H](CS)N)C2=CC=CC=C2
Method in brief: as §1

alisertib = compound: COc1cc(Nc2ncc3c(n2)-c2ccc(Cl)cc2C(c2c(F)cccc2OC)=NC3)ccc1C(=O)O [alisertib]
Method in brief: as §1

[9] = compound: COc1cc2nc(-c3cc(F)ccc3O)nc(N[C@@H]3CNC[C@H]3C(C)(C)O)c2cc1OC
Method in brief: as §1

gefitinib = compound: COc1cc2ncnc(Nc3ccc(F)c(Cl)c3)c2cc1OCCCN1CCOCC1 [gefitinib]
Method in brief: as §1

Measured: log2 fold change

EIF2S2 (UniProt P20042)
inactive: vemurafenib 0.01 | [1] -0.018 | barasertib -0.024 | [2] 0.039 | volasertib 0.012 | [3] -0.023 | [4] 0.13 | [5] -0.038 | saracatinib -0.011 | sotrastaurin -0.008 | alvocidib -0.011 | Tubastatin A 0.058 | [6] -0.001 | defactinib -0.038 | [7] 0.013 | encorafenib -0.027 | [8] -0.045 | alisertib -0.001 | [9] 0.006 | gefitinib -0.016

ERI3 (UniProt O43414)
inactive: vemurafenib 0.012 | [1] 0.017 | barasertib -0.013 | [2] 0.035 | volasertib -0.037 | [3] -0.03 | [4] -0.016 | [5] 0.084 | saracatinib -0.009 | sotrastaurin 0.004 | alvocidib 0.023 | Tubastatin A 0 | [6] 0.026 | defactinib 0 | [7] -0.018 | encorafenib -0.013 | [8] 0.034 | alisertib 0.014 | [9] 0.012 | gefitinib 0.045

EIF4A2 isoform 2 (UniProt Q14240)
inactive: vemurafenib -0.048 | [1] -0.002 | barasertib -0.026 | [2] -0.076 | volasertib -0.017 | [3] 0.023 | [4] -0.072 | [5] 0.053 | saracatinib 0.01 | sotrastaurin 0.006 | alvocidib -0.025 | Tubastatin A -0.033 | [6] -0.005 | defactinib -0.018 | [7] -0.019 | encorafenib 0.012 | [8] -0.004 | alisertib 0.001 | [9] 0.009 | gefitinib -0.03

ENOSF1 (UniProt Q7L5Y1)
inactive: vemurafenib 0.017 | [1] 0.001 | barasertib -0.003 | [2] 0.065 | volasertib -0.056 | [3] 0.007 | [4] -0.043 | [5] 0.005 | saracatinib 0.024 | sotrastaurin 0.011 | alvocidib 0.002 | Tubastatin A 0.022 | [6] 0.015 | defactinib -0.033 | [7] 0.077 | encorafenib -0.026 | [8] 0.08 | alisertib -0.051 | [9] 0.011 | gefitinib -0.014

ERCC1 (UniProt P07992)
inactive: vemurafenib 0.06 | [1] -0.039 | barasertib -0.002 | [2] -0.05 | volasertib -0.035 | [3] -0.03 | [4] -0.014 | [5] 0.032 | saracatinib 0.026 | sotrastaurin -0.062 | alvocidib -0.068 | Tubastatin A -0.009 | [6] -0.031 | defactinib 0.14 | [7] 0.021 | encorafenib 0.02 | [8] 0.02 | alisertib 0.085 | [9] -0.016 | gefitinib 0.064

EML4 (UniProt Q9HC35)
inactive: vemurafenib 0.011 | [1] 0.004 | barasertib 0 | [2] -0.01 | volasertib 0.003 | [3] 0.014 | [4] -0.018 | [5] 0.046 | saracatinib 0.001 | sotrastaurin 0.018 | alvocidib -0.021 | Tubastatin A -0.028 | [6] 0.028 | defactinib -0.018 | [7] -0.011 | encorafenib 0.011 | [8] 0.062 | alisertib 0 | [9] -0.007 | gefitinib -0.018

Two successive entries out of the list so far:
ERI3 (UniProt O43414)
inactive: vemurafenib 0.012 | [1] 0.017 | barasertib -0.013 | [2] 0.035 | volasertib -0.037 | [3] -0.03 | [4] -0.016 | [5] 0.084 | saracatinib -0.009 | sotrastaurin 0.004 | alvocidib 0.023 | Tubastatin A 0 | [6] 0.026 | defactinib 0 | [7] -0.018 | encorafenib -0.013 | [8] 0.034 | alisertib 0.014 | [9] 0.012 | gefitinib 0.045

EIF4A2 isoform 2 (UniProt Q14240)
inactive: vemurafenib -0.048 | [1] -0.002 | barasertib -0.026 | [2] -0.076 | volasertib -0.017 | [3] 0.023 | [4] -0.072 | [5] 0.053 | saracatinib 0.01 | sotrastaurin 0.006 | alvocidib -0.025 | Tubastatin A -0.033 | [6] -0.005 | defactinib -0.018 | [7] -0.019 | encorafenib 0.012 | [8] -0.004 | alisertib 0.001 | [9] 0.009 | gefitinib -0.03

Additional results.

EIF4G1 (UniProt Q04637)
inactive: vemurafenib -0.006 | [1] -0.01 | barasertib 0.005 | [2] -0.011 | volasertib -0.032 | [3] -0.002 | [4] 0.021 | [5] -0.04 | saracatinib 0.005 | sotrastaurin -0.011 | alvocidib 0.002 | Tubastatin A -0.053 | [6] 0.002 | defactinib 0.006 | [7] -0.008 | encorafenib 0.02 | [8] 0.053 | alisertib -0.003 | [9] 0.007 | gefitinib -0.009

EIF4ENIF1 isoform 3 (UniProt Q9NRA8)
inactive: vemurafenib 0.058 | [1] -0.061 | barasertib 0.014 | [2] 0.068 | volasertib -0.031 | [3] 0.012 | [4] -0.083 | [5] 0 | saracatinib 0.08 | sotrastaurin -0.053 | alvocidib -0.028 | Tubastatin A -0.047 | [6] -0.008 | defactinib 0.059 | [7] 0.062 | encorafenib -0.009 | [8] -0.242 | alisertib 0.019 | [9] -0.012 | gefitinib 0.076

EIPR1 (UniProt Q53HC9)
inactive: vemurafenib -0.003 | [1] -0.035 | barasertib 0.06 | [2] 0.006 | volasertib -0.007 | [3] 0.015 | [4] 0.101 | [5] 0.037 | saracatinib -0.054 | sotrastaurin 0.03 | alvocidib -0.053 | Tubastatin A 0.023 | [6] -0.002 | defactinib -0.007 | [7] 0.006 | encorafenib 0.029 | [8] -0.002 | alisertib -0.054 | [9] 0.007 | gefitinib 0.011

ENO2 (UniProt P09104)
active: [5] 0.319 | alvocidib -0.279
inactive: vemurafenib 0.05 | [1] 0.008 | barasertib -0.132 | [2] 0.044 | volasertib 0.046 | [3] -0.069 | [4] -0.231 | saracatinib 0.06 | sotrastaurin 0.034 | Tubastatin A 0.024 | [6] -0.018 | defactinib -0.007 | [7] 0.073 | encorafenib 0.032 | [8] 0.086 | alisertib -0.025 | [9] -0.014 | gefitinib -0.021

ELP1 (UniProt O95163)
inactive: vemurafenib 0.022 | [1] 0.01 | barasertib 0.001 | [2] 0.018 | volasertib 0 | [3] -0.027 | [4] -0.113 | [5] 0.055 | saracatinib -0.015 | sotrastaurin 0 | alvocidib -0.035 | Tubastatin A -0.006 | [6] -0.005 | defactinib -0.017 | [7] 0.009 | encorafenib -0.005 | [8] -0.017 | alisertib -0.005 | [9] 0.005 | gefitinib -0.013

ELF2 (UniProt Q15723)
inactive: vemurafenib -0.022 | [1] -0.056 | barasertib -0.123 | [2] 0.005 | volasertib 0.042 | [3] 0.031 | [4] 0.086 | [5] -0.078 | saracatinib -0.023 | sotrastaurin -0.004 | alvocidib 0.023 | Tubastatin A 0.016 | [6] 0.024 | defactinib -0.013 | [7] -0.062 | encorafenib 0.028 | [8] 0.038 | alisertib -0.101 | [9] -0.06 | gefitinib 0.047

EPS15 (UniProt P42566)
inactive: vemurafenib -0.012 | [1] -0.004 | barasertib -0.005 | [2] 0.046 | volasertib -0.006 | [3] 0.016 | [4] 0.002 | [5] -0.024 | saracatinib -0.006 | sotrastaurin -0.011 | alvocidib 0.005 | Tubastatin A -0.01 | [6] -0.019 | defactinib -0.018 | [7] -0.034 | encorafenib 0.01 | [8] -0.028 | alisertib 0.01 | [9] -0.015 | gefitinib 0.001

ERH (UniProt P84090)
inactive: vemurafenib -0.063 | [1] 0.026 | barasertib -0.032 | [2] -0.028 | volasertib 0.046 | [3] 0.006 | [4] 0.009 | [5] 0.012 | saracatinib -0.03 | sotrastaurin 0.006 | alvocidib 0.001 | Tubastatin A 0.028 | [6] -0.001 | defactinib -0.042 | [7] 0.023 | encorafenib -0.021 | [8] -0.056 | alisertib 0.082 | [9] -0.043 | gefitinib -0.085

ELF1 (UniProt P32519)
inactive: vemurafenib 0.022 | [1] 0.019 | barasertib 0.02 | [2] -0.019 | volasertib -0.043 | [3] -0.073 | [4] 0.071 | [5] -0.097 | saracatinib -0.015 | sotrastaurin 0.019 | alvocidib 0.11 | Tubastatin A -0.047 | [6] -0.022 | defactinib -0.021 | [7] 0.055 | encorafenib 0.013 | [8] -0.045 | alisertib 0.015 | [9] -0.039 | gefitinib -0.07

EIF3I (UniProt Q13347)
inactive: vemurafenib 0.017 | [1] 0.025 | barasertib 0.017 | [2] -0.113 | volasertib -0.078 | [3] 0.011 | [4] -0.034 | [5] -0.03 | saracatinib -0.008 | sotrastaurin 0.027 | alvocidib 0.034 | Tubastatin A -0.126 | [6] 0.01 | defactinib 0.002 | [7] -0.043 | encorafenib -0.018 | [8] 0.156 | alisertib 0.003 | [9] 0.009 | gefitinib -0.03
